Data from PubChem BioAssay AID504371 (National Center for Advancing Translational Sciences (NCATS), 2011).
All entries are inconclusive by the source's own rule. Clear calls are listed elsewhere. Calls come from the whole dose curve; as a rule, active = well fitted curve in the direction sought with a large enough effect; inconclusive = small, poorly fitted or top-dose-only effect, or another doubt; inactive = no such curve, though single readings can be large or run the other way. Potencies of inconclusive entries are doubtful fits and often do not repeat.

Assay: qHTS Assay for Compounds Blocking the Interaction Between CBF-beta and RUNX1 for the Treatment of Acute Myeloid Leukemia: ME-1 cellular proliferation, SAR for Probe
Details: ME-1 cell proliferation, ATP luminescence, 48 h
Source text: NIH Chemical Genomics Center [NCGC] NIH Molecular Libraries Probe Production centers Network [MLPCN] MLPCN Grant: X01MH083259-01 Assay Submitter (PI): Paul Liu NCGC Assay Overview: Core Binding Factor (CBF) abnormalities are associated with 20-25% of all acute myeloid leukemias (AML), of which 5-10% are further sub classified as acute myelomonocytic leukemia with eosinophilia, also known as M4Eo in the FAB classification scheme. This subtype of leukemia is usually associated with chromosome 16 inversion (p13:q22). Chromosome 16 inversion results in formation of the fusion oncogene CBFB-MYH11, which encodes the fusion protein CBF-beta-SMMHC. […] It has been hypothesized that the interference of CBF-beta and RUNX1 binding could have therapeutic implications for patients with CBF mediated leukemias. We developed a CBF-beta and RUNX1 binding assay in AlphaScreenTM format and optimized it for high throughput screening to search for inhibitors. […]
NCGC Assay protocol: 2uL/well media was dispensed per well into 1536-well white solid-bottom plates using Multidrop Combi dispenser. […] The plates were incubated at 37 °C with 5% CO2 and 95% humidity for 48 hours, and then ATP content was measured following the addition of 4uL/well of ATPlite reagent and a 20 min incubation on a ViewLux plate reader.

CC(=O)Nc1ccc(Cl)cc1C(=O)c1ccc[nH]1
Potency: inconclusive: 86.5 µM [inhibitor, partial curve]
